From patent publication US20250025561A1, “LIQUID COMPOSITIONS COMPRISING A PHOSPHORYLCHOLINE-TUFTSIN CONJUGATE” (Tarsier Pharma Ltd., priority 2021, published 2025)
Part of at least one peptide drawing is inferred or uncertain, most often the ends. At least one structure is not confirmed: it was looked up by name or label, or the drawing left a doubt. *1 amine or outer side, *2 acyl side, *3 side chain or, on linkers, in order; H or OH if unused. Where a SMILES comes first, the peptide text is derived from it. [ ]: non-standard residue; d: D form. X1 = C[N+](C)(C)CCOP(=O)([O-])Oc1ccc(/N=N/c2cc(C[C@H](N[*:1])C(=O)[*:2])ccc2O)cc1

Legend:
yeasts (S. cerevisiae) = experiment: Yeast fermentation activity (gas formation) in aqueous suspension with sucrose; type: cell-based; details: for fermentation activity vs control: FIG. 1
Description: Yeast fermentation activity was correlated to the formation of bubbles within the aqueous suspension.
In brief, varying amount of 1% w/w solution of TRS was added to an aqueous suspension containing yeasts (S. cerevisiae) and a sufficient amount of sucrose, to obtain aqueous compositions containing 4 ppm, 20 ppm, 40 ppm, and 80 ppm of TRS. The gas formation (fermentation activity) of the aqueous suspension with TRS (hereinafter, “the sample”) was quantified by evaluating the volume of the released gas and compared to a similar aqueous yeast suspension devoid of TRS (hereinafter, “the control”).
Further, the phosphorylcholine tuftsin conjugate (PC) of Formula 2A synthesized as disclosed herein, has been tested to evaluate its antifungal activity. The inventors performed a similar experiment, as disclosed above, using varying concentrations of the phosphorylcholine tuftsin conjugate of Formula 2 (i.e. 6.7 ppm, 20 ppm, 40 ppm, and 80 ppm).

[1] = Long term stability study of drug substance [TRS]; type: physicochemical; details: stored at −20° C.±5° C.

Q: Which results are given for `C[C@@H](O)[C@H](N)C(=O)N[C@@H](CCCCN)C(=O)N1CCC[C@H]1C(=O)N[C@@H](CCCNC(=N)N)C(=O)NCC(=O)N[C@@H](Cc1ccc(O)c(/N=N/c2ccc(OP(=O)([O-])OCC[N+](C)(C)C)cc2)c1)C(=O)O` [TRS] (H-TKPRG[X1]-OH)?
A: fermentation activity vs control (yeasts (S. cerevisiae); 20 ppm (20 μg/ml)): significant reduction of fermentation activity; fermentation activity vs control (yeasts (S. cerevisiae); 40 ppm): almost completely devoid of fermentation activity; fermentation activity vs control (yeasts (S. cerevisiae); 80 ppm): almost completely devoid of fermentation activity; yeast cellular respiration / fermentation activity vs control (yeasts (S. cerevisiae); preliminary study, concentration not given): reduced fermentation activity; time the drug substance is stable [1]: 6 months
